Publication PMC7419011
These are yes or no findings as the source states them, for the method shown. Binding seen in cells or lysates may run through a third protein. Binding can be weak; no strength is given. Sequences can lack the tags named with a protein.

molecular target: T1, TGB1-YFPc (TGB1 fused with the C-terminal half of YFP, 35S promoter) (Barley stripe mosaic virus) (UniProt P04867); test: split reporter; BiFC, YFPn and YFPc fusions under the 35S promoter co-expressed in N. benthamiana leaves by agroinfiltration, confocal microscopy at 3 dpi
T1 sequence: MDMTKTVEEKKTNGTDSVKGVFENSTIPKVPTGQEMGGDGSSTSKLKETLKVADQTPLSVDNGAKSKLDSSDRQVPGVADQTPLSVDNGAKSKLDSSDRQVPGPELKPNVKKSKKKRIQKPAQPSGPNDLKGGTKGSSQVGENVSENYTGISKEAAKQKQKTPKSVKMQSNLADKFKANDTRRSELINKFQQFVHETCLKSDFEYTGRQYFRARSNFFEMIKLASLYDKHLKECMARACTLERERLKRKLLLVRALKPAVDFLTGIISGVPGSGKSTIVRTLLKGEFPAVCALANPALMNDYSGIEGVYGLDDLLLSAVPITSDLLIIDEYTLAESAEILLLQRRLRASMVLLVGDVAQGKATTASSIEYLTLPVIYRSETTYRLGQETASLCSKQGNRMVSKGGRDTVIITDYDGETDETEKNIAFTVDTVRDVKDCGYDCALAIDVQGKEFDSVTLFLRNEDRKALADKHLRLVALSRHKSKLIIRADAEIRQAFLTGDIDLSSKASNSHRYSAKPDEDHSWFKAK

Substance | binding
γb_(1-24)-YFPn (Barley stripe mosaic virus) (domain or fragment) | no binding
γb_(1-85)-YFPn (Barley stripe mosaic virus) (domain or fragment) | binds
γb_(19-47)-YFPn (Barley stripe mosaic virus) (domain or fragment) | no binding
γb_(60-85)-YFPn (Barley stripe mosaic virus) (domain or fragment) | no binding
γb_(86-152)-YFPn (Barley stripe mosaic virus) (domain or fragment) | no binding
